Results are given in words; binding and its absence hold for the method and conditions named. Binding seen in cells or lysates may run through a third protein. Some binding calls cover weakened binding; strength is not graded here. For some assays here: Where a sequence is shown, tags or fusion partners need not be part of it.
Columns and labels:
[1] = molecular target: Prokineticin receptor 2 (Prokr2) (mouse (endogenous in brain tissue)) (UniProt Q8K458); test: co-IP; lysates of mouse brain tissue with and without CCI in weak RIPA buffer, primary antibody overnight at 4 °C, protein A/G agarose, immunoblot; which protein was precipitated not given
[2] = molecular target: long-chain-fatty-acid-CoA ligase 4 (Acsl4) (mouse (endogenous in primary cortical neurons)) (UniProt Q9QUJ7); test: co-IP; Myc-tagged Fbxo10 fragments (aa 6-49, aa 460-867, aa 1-951) from plasmids, Myc-only plasmid as control; tested for interaction with Acsl4; method not named for this panel

By UniProt entry, the sequences of proteins in these tests, tags left out.
UniProt Q8K458: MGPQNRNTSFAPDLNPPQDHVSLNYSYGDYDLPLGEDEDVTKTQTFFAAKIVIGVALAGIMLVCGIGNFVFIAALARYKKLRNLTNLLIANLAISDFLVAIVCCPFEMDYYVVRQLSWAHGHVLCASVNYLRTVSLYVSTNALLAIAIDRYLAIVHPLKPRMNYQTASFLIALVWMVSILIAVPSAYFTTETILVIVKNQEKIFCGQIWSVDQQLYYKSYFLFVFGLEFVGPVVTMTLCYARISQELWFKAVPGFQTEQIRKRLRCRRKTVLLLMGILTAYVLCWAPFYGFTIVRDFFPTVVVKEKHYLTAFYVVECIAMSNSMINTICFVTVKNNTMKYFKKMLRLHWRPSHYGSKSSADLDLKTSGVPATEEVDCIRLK
UniProt Q9QUJ7: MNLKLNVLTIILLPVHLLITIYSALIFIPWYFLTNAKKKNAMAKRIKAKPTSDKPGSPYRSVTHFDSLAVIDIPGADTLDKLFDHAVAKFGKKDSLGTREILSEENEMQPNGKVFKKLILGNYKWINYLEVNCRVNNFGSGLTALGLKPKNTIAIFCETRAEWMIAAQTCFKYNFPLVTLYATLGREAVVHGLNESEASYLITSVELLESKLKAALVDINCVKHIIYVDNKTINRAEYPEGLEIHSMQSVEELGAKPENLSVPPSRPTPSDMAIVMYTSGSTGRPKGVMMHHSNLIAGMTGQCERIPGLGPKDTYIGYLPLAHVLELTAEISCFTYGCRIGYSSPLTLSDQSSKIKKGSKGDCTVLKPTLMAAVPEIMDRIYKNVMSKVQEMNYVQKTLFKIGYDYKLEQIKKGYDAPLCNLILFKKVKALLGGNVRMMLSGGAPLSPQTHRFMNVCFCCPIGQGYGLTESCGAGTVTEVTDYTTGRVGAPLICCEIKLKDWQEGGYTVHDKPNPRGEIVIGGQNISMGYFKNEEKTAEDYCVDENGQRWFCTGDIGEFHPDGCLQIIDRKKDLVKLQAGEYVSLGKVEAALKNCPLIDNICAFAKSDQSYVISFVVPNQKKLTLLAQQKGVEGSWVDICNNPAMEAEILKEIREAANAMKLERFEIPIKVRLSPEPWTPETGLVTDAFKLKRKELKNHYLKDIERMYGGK

B1: Prokineticin-2 (Prok2) (ligand, UniProt Q9QXU7 27-128)
chain: AVITGACDKDSQCGGGMCCAVSIWVKSIRICTPMGQVGDSCHPLTRKSHVANGRQERRRAKRRKRKKEVPFWGRRMHHTCPCLPGLACLRTSFNRFICLARK
- binding [1]: binds

B2: Myc-tagged Fbxo10 domain (aa 460-867) (domain or fragment, UniProt Q7TQF2 460-867)
chain: YAVRCIHNSKIVMLRNDIYRCRASGIFLRLEGGGLIAGNNIYHNAEAGVDIRKKSNPLILCNQIHHGLRSGIVVLGNGKGVIRNNQIFSNKEAGIYILYHGNPIVSGNHIFKGRAAGIAVNENGKGLITENVIRENQWGGVDIRRGGVPILRSNLICFGYSDGVVVGDEGKGLIEGNTIYANKGCGVWMMSSSLPHVTSNHVSYNGLYGVAVFSQKDGEFPGGHGAQENFSEDGDAILWEAELEKEDDPLRRPITVALVESNSINHNGASGIFVQSSEALQVVANVIHANGDRGITIVQSSQLTRVANNSISCNRQSGVKVEFQCKVELRGNGIYDNRGHGIITKGDGTAVVENDIIGNRGSGLQLLPRSDTKVLKNRIHSFRAYGIAVRGRVKALVQENIIFQGKTN
- binding [2]: binds

— paper PMC8270965
